Measured values: paper doi:10.1101/2023.12.12.571289
These are yes or no findings as the source states them, for the method shown. For part of these data: Binding seen in cells or lysates may run through a third protein. Some entries that bind do so weakly or less than the wild type.

Chains of the proteins cited; added tags and fusions are not shown. Residues count along the entry.
UniProt P07996, residues 19-1170: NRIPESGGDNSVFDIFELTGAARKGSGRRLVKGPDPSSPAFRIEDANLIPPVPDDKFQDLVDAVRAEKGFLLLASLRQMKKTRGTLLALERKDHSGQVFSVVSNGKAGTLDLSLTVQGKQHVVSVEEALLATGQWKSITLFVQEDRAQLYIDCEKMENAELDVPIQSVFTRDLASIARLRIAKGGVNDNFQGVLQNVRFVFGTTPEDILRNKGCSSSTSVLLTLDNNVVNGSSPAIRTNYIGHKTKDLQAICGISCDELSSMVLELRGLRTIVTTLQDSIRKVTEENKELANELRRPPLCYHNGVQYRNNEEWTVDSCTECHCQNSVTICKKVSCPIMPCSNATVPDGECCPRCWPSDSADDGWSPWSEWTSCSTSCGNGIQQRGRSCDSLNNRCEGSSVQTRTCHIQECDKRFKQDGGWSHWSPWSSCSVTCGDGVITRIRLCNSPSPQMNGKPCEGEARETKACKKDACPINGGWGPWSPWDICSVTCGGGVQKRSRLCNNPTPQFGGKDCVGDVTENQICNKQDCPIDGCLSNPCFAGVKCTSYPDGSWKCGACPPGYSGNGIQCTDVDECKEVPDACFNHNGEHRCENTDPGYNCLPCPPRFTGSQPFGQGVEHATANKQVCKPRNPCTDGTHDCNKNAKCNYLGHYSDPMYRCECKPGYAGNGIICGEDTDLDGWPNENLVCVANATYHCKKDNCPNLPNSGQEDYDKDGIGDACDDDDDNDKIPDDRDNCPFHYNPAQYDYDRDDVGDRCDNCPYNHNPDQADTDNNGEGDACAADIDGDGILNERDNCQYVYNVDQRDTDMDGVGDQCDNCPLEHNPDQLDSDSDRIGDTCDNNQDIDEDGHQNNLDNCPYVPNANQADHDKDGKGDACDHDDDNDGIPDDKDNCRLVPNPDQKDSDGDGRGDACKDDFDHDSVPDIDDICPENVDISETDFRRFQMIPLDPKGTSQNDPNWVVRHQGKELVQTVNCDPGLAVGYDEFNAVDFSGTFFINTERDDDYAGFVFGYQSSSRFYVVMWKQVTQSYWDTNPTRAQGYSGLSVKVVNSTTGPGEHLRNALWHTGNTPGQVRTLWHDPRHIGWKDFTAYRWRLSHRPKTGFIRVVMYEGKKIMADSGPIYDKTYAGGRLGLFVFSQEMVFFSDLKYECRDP
UniProt P14780, residues 107-707: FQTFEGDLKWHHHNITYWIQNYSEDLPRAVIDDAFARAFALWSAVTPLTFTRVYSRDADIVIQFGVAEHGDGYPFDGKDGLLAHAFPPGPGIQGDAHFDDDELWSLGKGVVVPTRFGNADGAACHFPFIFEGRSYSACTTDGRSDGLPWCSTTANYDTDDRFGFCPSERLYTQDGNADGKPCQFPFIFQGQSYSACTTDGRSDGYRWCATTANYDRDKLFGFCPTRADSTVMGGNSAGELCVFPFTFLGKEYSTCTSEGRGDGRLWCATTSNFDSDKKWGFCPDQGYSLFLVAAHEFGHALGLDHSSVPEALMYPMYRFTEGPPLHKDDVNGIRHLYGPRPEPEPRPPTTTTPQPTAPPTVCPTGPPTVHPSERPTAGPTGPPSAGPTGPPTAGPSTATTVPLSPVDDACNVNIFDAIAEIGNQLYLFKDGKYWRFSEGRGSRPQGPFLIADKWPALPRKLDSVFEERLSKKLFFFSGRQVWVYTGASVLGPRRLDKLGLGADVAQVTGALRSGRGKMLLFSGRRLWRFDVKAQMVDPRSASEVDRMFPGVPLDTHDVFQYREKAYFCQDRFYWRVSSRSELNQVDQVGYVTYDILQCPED

Tests used:
[1] = target: T1, Extracellular Matrix Protein 1 (ECM1), endogenous in LX-2 HSCs (human (endogenous in LX-2)) (UniProt Q16610); experiment: co-IP
T1 sequence: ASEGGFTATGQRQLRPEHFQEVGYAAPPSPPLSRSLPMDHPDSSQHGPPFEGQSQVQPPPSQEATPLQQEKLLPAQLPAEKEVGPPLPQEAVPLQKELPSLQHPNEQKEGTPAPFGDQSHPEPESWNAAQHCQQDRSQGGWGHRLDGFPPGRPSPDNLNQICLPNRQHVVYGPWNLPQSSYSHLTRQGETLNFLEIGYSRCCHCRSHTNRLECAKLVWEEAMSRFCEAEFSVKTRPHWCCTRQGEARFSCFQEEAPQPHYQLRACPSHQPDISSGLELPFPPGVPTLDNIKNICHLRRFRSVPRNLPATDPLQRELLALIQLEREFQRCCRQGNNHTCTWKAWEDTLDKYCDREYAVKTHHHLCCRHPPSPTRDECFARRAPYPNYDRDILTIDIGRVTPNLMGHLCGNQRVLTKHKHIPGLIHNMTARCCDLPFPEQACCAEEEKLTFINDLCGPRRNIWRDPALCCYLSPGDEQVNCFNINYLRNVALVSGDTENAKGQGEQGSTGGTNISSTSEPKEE

recombinant ECM1 (rECM1) = target: T2, recombinant ECM1 (rECM1) (UniProt Q16610); experiment: pull-down
T2 sequence: T1 sequence

Row | binding [1] | binding (recombinant ECM1 (rECM1)) | Substance
1 | binds | – | Thrombospondin 1 (TSP-1), endogenous in LX-2 HSCs (from UniProt P07996 19-1170)
2 | binds | – | matrix metalloproteinase-9 (MMP-9), mature form, endogenous in LX-2 HSCs (from UniProt P14780 107-707) (enzyme)
3 | – | binds | recombinant Thrombospondin 1 (TSP-1) (from UniProt P07996 19-1170)
